Data published in the supplement of paper PMC10849652.
This is one part of the list. Residues, ends and D or L forms follow the SMILES beside them. *: point of attachment. Cbz = O=C(OCc1ccccc1)*

The chains behind the UniProt entries cited, without tags or fusion partners. Where a name states a change or a piece, a line headed by the entry shows the natural chain unless it says otherwise.
UniProt Q9H7C9: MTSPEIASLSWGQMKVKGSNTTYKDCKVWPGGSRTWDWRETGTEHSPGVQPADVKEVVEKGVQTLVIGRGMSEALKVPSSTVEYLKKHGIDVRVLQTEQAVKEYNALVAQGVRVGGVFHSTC
UniProt Q9NUT2: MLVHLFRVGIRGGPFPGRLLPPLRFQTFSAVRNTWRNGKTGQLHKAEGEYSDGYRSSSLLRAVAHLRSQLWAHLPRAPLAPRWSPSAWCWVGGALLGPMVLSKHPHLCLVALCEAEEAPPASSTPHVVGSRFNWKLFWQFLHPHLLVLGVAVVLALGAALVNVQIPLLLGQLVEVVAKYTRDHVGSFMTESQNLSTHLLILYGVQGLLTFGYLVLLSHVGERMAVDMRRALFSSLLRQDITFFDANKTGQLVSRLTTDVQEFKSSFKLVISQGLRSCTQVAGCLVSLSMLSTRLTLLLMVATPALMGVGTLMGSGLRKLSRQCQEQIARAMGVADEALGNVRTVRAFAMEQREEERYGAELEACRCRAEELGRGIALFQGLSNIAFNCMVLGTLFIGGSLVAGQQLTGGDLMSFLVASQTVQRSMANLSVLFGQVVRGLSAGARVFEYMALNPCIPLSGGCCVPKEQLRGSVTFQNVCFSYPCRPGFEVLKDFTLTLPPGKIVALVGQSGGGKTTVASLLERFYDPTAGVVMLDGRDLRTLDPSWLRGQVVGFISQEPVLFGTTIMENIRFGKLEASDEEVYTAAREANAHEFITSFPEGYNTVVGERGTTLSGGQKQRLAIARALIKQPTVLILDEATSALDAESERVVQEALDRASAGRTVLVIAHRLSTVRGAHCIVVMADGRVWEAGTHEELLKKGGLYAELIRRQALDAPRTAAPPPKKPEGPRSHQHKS
UniProt Q8IZP0: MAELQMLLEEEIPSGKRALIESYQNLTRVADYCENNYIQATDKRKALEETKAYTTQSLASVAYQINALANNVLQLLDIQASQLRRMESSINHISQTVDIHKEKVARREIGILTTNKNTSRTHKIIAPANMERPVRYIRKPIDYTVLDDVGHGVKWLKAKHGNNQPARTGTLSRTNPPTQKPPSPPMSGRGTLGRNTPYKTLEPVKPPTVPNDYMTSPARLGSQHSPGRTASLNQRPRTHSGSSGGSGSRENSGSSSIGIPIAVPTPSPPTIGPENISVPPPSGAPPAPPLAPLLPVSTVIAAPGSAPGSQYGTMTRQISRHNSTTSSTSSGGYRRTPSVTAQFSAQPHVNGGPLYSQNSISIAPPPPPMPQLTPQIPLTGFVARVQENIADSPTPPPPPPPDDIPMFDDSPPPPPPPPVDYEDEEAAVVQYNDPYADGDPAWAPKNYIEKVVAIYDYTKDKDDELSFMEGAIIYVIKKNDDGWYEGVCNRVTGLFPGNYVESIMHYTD
UniProt Q9UKU7: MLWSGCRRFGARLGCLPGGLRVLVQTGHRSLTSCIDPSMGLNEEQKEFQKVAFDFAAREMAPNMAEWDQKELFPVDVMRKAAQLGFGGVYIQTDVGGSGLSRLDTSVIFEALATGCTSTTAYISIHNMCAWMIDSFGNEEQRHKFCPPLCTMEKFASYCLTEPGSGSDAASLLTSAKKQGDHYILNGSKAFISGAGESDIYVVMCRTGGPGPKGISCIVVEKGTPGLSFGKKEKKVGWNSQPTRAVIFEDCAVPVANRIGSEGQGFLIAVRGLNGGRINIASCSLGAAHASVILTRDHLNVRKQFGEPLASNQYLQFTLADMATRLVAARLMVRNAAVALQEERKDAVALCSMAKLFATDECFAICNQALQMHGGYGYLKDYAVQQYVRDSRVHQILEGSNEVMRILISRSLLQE
UniProt P78536: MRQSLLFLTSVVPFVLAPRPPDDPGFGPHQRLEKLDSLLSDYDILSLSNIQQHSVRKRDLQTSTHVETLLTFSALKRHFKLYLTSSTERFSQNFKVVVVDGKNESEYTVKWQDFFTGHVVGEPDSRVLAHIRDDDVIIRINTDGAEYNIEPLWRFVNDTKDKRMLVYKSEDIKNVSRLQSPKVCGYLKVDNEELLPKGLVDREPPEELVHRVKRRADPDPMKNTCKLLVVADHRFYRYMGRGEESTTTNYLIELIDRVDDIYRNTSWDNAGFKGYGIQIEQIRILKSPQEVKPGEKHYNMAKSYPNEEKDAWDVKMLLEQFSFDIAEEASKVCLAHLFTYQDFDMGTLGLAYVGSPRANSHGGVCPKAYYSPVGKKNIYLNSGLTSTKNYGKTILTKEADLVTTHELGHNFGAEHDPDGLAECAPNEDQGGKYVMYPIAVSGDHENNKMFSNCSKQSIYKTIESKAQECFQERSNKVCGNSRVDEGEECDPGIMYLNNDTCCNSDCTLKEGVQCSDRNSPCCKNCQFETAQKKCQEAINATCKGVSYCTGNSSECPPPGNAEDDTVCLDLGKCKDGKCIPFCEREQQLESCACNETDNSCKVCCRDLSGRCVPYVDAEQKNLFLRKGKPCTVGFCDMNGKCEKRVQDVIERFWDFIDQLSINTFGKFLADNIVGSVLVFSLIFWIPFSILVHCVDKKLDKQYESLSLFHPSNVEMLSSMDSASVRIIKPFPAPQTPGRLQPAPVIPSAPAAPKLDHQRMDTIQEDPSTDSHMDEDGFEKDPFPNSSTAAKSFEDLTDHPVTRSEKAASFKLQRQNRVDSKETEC
UniProt P11310: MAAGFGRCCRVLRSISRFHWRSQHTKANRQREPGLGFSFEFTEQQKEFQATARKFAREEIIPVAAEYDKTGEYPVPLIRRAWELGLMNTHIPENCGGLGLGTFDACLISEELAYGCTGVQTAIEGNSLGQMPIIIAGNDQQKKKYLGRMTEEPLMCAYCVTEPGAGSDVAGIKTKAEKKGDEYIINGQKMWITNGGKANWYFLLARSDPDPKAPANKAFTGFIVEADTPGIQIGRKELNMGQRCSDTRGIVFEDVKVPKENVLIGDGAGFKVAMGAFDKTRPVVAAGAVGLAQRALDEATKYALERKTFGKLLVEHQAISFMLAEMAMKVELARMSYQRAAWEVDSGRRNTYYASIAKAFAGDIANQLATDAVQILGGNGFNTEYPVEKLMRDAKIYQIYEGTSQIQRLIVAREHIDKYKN
UniProt O95573: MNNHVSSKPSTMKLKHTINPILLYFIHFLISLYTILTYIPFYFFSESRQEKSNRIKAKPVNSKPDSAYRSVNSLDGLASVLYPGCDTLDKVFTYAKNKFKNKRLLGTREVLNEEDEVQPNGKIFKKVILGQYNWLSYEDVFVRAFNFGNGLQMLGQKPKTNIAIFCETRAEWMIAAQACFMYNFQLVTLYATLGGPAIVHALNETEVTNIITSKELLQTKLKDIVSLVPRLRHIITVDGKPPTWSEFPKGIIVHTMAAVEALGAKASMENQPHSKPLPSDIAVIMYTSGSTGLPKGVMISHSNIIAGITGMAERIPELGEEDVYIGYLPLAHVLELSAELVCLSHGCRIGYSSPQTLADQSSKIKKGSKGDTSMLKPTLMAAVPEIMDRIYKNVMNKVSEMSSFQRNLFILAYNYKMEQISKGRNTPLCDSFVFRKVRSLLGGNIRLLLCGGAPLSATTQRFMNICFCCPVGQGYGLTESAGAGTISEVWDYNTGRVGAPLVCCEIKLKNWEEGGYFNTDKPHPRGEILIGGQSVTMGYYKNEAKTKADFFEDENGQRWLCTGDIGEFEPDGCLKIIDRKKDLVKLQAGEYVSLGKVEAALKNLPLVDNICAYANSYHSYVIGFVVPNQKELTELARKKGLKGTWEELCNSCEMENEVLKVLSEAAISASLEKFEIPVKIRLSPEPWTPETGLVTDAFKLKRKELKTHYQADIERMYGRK
UniProt P53396: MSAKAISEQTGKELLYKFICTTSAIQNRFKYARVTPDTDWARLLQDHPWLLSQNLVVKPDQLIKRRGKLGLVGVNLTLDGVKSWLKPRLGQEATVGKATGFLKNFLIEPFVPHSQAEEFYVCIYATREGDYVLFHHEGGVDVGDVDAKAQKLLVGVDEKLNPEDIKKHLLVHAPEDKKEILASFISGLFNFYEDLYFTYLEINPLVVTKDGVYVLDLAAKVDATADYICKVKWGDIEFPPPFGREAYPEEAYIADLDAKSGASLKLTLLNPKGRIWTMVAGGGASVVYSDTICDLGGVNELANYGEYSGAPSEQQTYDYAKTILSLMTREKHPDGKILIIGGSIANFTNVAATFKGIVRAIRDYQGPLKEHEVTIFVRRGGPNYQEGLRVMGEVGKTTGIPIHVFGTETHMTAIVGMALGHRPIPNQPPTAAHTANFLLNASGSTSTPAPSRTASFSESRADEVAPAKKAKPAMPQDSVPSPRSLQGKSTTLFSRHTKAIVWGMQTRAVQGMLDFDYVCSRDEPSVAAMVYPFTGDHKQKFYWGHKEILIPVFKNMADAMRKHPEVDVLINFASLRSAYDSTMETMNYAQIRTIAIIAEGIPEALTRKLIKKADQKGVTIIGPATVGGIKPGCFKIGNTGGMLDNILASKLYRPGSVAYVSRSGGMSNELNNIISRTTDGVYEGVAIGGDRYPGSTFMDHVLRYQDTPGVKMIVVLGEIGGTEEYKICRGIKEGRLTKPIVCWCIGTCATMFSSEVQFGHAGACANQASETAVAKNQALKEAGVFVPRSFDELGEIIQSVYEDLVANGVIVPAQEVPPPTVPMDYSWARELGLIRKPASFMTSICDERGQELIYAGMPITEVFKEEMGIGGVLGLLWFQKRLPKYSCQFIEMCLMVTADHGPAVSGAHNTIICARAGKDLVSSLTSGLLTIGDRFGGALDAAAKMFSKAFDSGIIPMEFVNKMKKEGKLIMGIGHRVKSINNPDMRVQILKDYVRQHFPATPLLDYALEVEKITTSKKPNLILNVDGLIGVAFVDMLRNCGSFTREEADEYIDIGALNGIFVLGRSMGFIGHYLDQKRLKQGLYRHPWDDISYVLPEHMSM
UniProt Q15057: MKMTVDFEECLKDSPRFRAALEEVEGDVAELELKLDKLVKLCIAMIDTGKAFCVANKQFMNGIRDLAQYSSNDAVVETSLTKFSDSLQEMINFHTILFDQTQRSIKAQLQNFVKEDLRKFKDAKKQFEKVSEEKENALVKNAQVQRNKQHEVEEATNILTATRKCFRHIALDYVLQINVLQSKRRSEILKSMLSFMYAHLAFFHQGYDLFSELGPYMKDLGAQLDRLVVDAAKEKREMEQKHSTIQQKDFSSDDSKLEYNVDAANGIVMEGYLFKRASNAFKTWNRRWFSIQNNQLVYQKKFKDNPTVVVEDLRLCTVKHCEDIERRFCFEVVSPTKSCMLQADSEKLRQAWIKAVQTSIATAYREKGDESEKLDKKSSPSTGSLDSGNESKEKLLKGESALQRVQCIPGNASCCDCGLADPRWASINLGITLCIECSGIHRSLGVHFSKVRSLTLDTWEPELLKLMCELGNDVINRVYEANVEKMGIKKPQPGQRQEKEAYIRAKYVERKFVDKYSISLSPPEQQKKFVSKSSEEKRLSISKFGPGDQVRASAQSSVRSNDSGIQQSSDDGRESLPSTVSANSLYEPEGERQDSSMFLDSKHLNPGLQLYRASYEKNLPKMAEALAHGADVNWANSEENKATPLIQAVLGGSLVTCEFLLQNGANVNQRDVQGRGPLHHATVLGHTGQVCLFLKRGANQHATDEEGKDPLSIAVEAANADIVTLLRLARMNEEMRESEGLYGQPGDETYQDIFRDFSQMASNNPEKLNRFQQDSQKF
UniProt Q9BTE6: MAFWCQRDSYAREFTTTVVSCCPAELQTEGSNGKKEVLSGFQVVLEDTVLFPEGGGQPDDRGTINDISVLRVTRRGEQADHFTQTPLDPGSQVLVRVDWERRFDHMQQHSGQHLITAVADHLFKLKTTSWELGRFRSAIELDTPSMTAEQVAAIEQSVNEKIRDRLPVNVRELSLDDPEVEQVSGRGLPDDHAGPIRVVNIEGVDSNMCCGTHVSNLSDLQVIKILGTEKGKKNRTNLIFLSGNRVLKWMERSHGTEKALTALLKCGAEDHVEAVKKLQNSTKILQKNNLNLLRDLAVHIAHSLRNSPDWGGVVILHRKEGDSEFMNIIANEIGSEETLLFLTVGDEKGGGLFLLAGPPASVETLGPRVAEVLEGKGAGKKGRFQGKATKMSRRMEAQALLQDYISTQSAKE
UniProt Q8NFV4: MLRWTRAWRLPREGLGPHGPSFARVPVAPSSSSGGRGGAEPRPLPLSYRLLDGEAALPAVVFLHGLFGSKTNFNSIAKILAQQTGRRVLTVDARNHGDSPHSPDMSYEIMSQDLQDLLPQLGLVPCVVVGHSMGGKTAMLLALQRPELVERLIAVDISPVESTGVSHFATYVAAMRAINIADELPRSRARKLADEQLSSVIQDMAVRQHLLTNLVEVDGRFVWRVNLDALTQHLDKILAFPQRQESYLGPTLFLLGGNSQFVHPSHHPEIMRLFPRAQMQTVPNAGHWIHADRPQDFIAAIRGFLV

Assays:
Experiment in all cases: log2 fold change, soluble protein after heating vs DMSO (PISA); higher = thermal stabilisation; K562 cells, 10 uM, 30 min; active = over 0.2 and 3.5 SD of the protein, either way, in both replicates (recomputed)
IRAK-1-4 Inhibitor I = compound: C1COCCN1CCN2C3=CC=CC=C3N=C2NC(=O)C4=CC(=CC=C4)[N+](=O)[O-] [IRAK-1-4 Inhibitor I]
Summary of the method: (§1)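 Thermal stability values are relative to control samples and come from duplicates. They are expressed as log2 fold changes. For measurement, K562 cells (2×10^6 cells/mL) received 10 μM compound for 30 min, and aliquots were heated for 3 min over 48°C-58°C, pooled, and extracted at 4°C in PBS with 0.5% NP-40. Soluble protein, the supernatant after 21,000xg for 90 min, was quantified by TMTpro 16plex LC-MS/MS with equalised channel sums.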

ibrutinib = compound: C=CC(=O)N1CCC[C@@H](n2nc(-c3ccc(Oc4ccccc4)cc3)c3c(N)ncnc32)C1 [ibrutinib]
Summary of the method: as §1

[1] = compound: CC(=O)c1cnc2ccc(-c3cc(Cl)c(O)c(Cl)c3)nc2c1N[C@H]1CC[C@H](CN(C)C)CC1
Summary of the method: as §1

ralimetinib = compound: CC(C)(C)Cn1c(N)nc2ccc(-c3[nH]c(C(C)(C)C)nc3-c3ccc(F)cc3)nc21 [ralimetinib]
Summary of the method: as §1

[2] = compound: CC(C)(O)CC(=O)NCCn1ccc2ncnc(Nc3ccc(Oc4cccc(C(F)(F)F)c4)c(Cl)c3)c21
Summary of the method: as §1

[3] = compound: CC(C)C1=C2N=C(C=C(N2N=C1)NCC3=CC=CC=C3)NCCCCCCN
Summary of the method: as §1

[4] = compound: CC(C)C[C@@H](C=O)NC(=O)[C@H](CC(C)C)NC(=O)[C@H](CC(C)C)NC(=O)OCc1ccccc1
Summary of the method: as §1

pinometostat = compound: CC(C)N(C[C@H]1O[C@@H](n2cnc3c(N)ncnc32)[C@H](O)[C@@H]1O)[C@H]1C[C@@H](CCc2nc3cc(C(C)(C)C)ccc3[nH]2)C1 [pinometostat]
Summary of the method: as §1

[5] = compound: CC1=C(C(CC(=O)N1)C2=CC=C(C=C2)C(F)(F)F)C(=O)NC3=C(C=C4C(=C3)C=NN4)F
Summary of the method: as §1

[6] = compound: CC1=C(C2=C(C=C1)C(=O)C3=CC=CC=C3N2CCCN)C
Summary of the method: as §1

[7] = compound: CC1=C(C=C(C=C1)NC(=O)C2=CC(=CC=C2)C(C)(C)C#N)NC3=CC4=C(C=C3)N=CN(C4=O)C
Summary of the method: as §1

[8] = compound: CC1=C(C=C(C=C1)NC(=O)C2=CC(=CC=C2)N(C)C)NC(=O)C3=CC=C(C=C3)O
Summary of the method: as §1

[9] = compound: CC1=CC=C(C=C1)SC2=C3C=C(SC3=CN=C2)C(=O)N
Summary of the method: as §1

[10] = compound: CC1=NC(=CC=C1)C2=C(N=C(N2)C(C)(C)C)C3=CC4=NC=CN=C4C=C3
Summary of the method: as §1

Nexturastat A = compound: CCCCN(Cc1ccc(C(=O)NO)cc1)C(=O)Nc1ccccc1 [Nexturastat A]
Summary of the method: as §1

vemurafenib = compound: CCCS(=O)(=O)Nc1ccc(F)c(C(=O)c2c[nH]c3ncc(-c4ccc(Cl)cc4)cc23)c1F [vemurafenib]
Summary of the method: as §1

[11] = compound: CCCS(=O)(=O)Nc1ccc(F)c(C(=O)c2c[nH]c3ncc(Cl)cc23)c1F
Summary of the method: as §1

[12] = compound: CCCc1cc(C)[nH]c(=O)c1CNC(=O)c1cc(-c2ccnc(N3CCN(C)CC3)c2)cc2c1cnn2C(C)C
Summary of the method: as §1

givinostat = compound: CCN(CC)Cc1ccc2cc(COC(=O)Nc3ccc(C(=O)NO)cc3)ccc2c1 [givinostat]
Summary of the method: as §1

barasertib = compound: CCN(CCCOc1ccc2c(Nc3cc(CC(=O)Nc4cccc(F)c4)[nH]n3)ncnc2c1)CCOP(=O)(O)O [barasertib]
Summary of the method: as §1

Measured: log2 fold change

ACTB, A0A2R8Y793
inactive: IRAK-1-4 Inhibitor I 0.045 | ibrutinib 0.092 | [1] -0.003 | ralimetinib 0.064 | [2] -0.004 | [3] 0.084 | [4] -0.034 | pinometostat -0.054 | [5] 0.042 | [6] -0.011 | [7] 0.008 | [8] -0.001 | [9] 0.024 | [10] 0.022 | Nexturastat A -0.01 | vemurafenib 0.011 | [11] 0.012 | [12] -0.035 | givinostat -0.021 | barasertib -0.013

AAMDC (UniProt Q9H7C9)
inactive: IRAK-1-4 Inhibitor I -0.054 | ibrutinib 0.001 | [1] 0.001 | ralimetinib -0.02 | [2] -0.155 | [3] 0.076 | [4] -0.026 | pinometostat -0.1 | [5] -0.007 | [6] 0.222 | [7] 0.006 | [8] -0.05 | [9] -0.003 | [10] 0.064 | Nexturastat A -0.127 | vemurafenib 0.004 | [11] 0.012 | [12] -0.074 | givinostat -0.027 | barasertib 0.011

ABCB8 (UniProt Q9NUT2)
inactive: IRAK-1-4 Inhibitor I 0.008 | ibrutinib -0.018 | [1] -0.001 | ralimetinib -0.061 | [2] 0.038 | [3] -0.041 | [4] -0.025 | pinometostat 0.026 | [5] -0.024 | [6] 0.018 | [7] 0.024 | [8] -0.023 | [9] -0.028 | [10] -0.042 | Nexturastat A -0.075 | vemurafenib -0.018 | [11] 0.009 | [12] 0.007 | givinostat 0.004 | barasertib 0.031

ABI1 (UniProt Q8IZP0)
inactive: IRAK-1-4 Inhibitor I -0.003 | ibrutinib 0.048 | [1] -0.059 | ralimetinib 0.009 | [2] 0.014 | [3] -0.065 | [4] 0.048 | pinometostat 0 | [5] 0.014 | [6] 0.042 | [7] -0.012 | [8] -0.003 | [9] -0.051 | [10] 0.015 | Nexturastat A -0.07 | vemurafenib -0.005 | [11] 0.007 | [12] 0.128 | givinostat 0.057 | barasertib -0.02

ACACA isoform 4 (UniProt Q13085)
inactive: IRAK-1-4 Inhibitor I -0.132 | ibrutinib -0.061 | [1] 0.047 | ralimetinib 0.14 | [2] -0.01 | [3] -0.3 | [4] 0.062 | pinometostat 0.281 | [5] -0.018 | [6] -0.017 | [7] -0.026 | [8] 0.007 | [9] 0.017 | [10] -0.058 | Nexturastat A 0.265 | vemurafenib 0.022 | [11] 0.035 | [12] 0.119 | givinostat 0.163 | barasertib 0.087

ACAD8 (UniProt Q9UKU7)
inactive: IRAK-1-4 Inhibitor I 0.145 | ibrutinib -0.096 | [1] 0.05 | ralimetinib -0.056 | [2] 0.039 | [3] 0.086 | [4] 0.029 | pinometostat 0.142 | [5] 0.066 | [6] 0.024 | [7] -0.008 | [8] -0.06 | [9] -0.054 | [10] -0.014 | Nexturastat A -0.037 | vemurafenib -0.01 | [11] 0.005 | [12] -0.026 | givinostat -0.028 | barasertib -0.013

ACSF3 (UniProt Q4G176)
inactive: IRAK-1-4 Inhibitor I 0.05 | ibrutinib -0.088 | [1] -0.129 | ralimetinib -0.004 | [2] -0.063 | [3] -0.138 | [4] 0.077 | pinometostat 0.011 | [6] 0.023 | [7] -0.002 | [8] 0.038 | [9] 0.007 | [10] 0.023 | Nexturastat A -0.005 | vemurafenib 0.029 | [11] 0.003 | [12] 0.008 | givinostat -0.022 | barasertib 0.051

ADAM17 (UniProt P78536)
inactive: IRAK-1-4 Inhibitor I 0.009 | ibrutinib 0 | [1] 0.022 | ralimetinib 0.024 | [2] 0.035 | [3] 0.005 | [4] 0.01 | pinometostat 0.046 | [5] -0.022 | [6] -0.024 | [7] -0.049 | [8] -0.001 | [9] -0.05 | [10] -0.007 | Nexturastat A 0.042 | vemurafenib -0.038 | [11] -0.112 | [12] -0.002 | givinostat -0.005 | barasertib 0.013

ABCE1 (UniProt P61221)
inactive: IRAK-1-4 Inhibitor I 0.004 | ibrutinib 0.01 | [1] 0.04 | ralimetinib -0.045 | [2] -0.031 | [3] 0.083 | [4] -0.06 | pinometostat -0.069 | [5] 0.026 | [6] -0.014 | [7] 0.043 | [8] 0.014 | [9] 0.009 | [10] 0.076 | Nexturastat A -0.103 | vemurafenib -0.031 | [11] -0.017 | [12] -0.045 | givinostat -0.037 | barasertib -0.013

ACADM isoform 2 (UniProt P11310)
inactive: IRAK-1-4 Inhibitor I 0.028 | ibrutinib 0.034 | [1] -0.013 | ralimetinib -0.068 | [2] -0.043 | [3] 0.051 | [4] -0.001 | pinometostat -0.085 | [6] 0 | [7] -0.018 | [8] -0.024 | [9] 0.001 | [10] 0.017 | Nexturastat A 0.009 | vemurafenib 0.009 | [11] -0.015 | [12] -0.042 | givinostat -0.033 | barasertib 0

ACSL3 (UniProt O95573)
inactive: IRAK-1-4 Inhibitor I 0 | ibrutinib -0.001 | [1] -0.035 | ralimetinib -0.009 | [2] -0.086 | [3] -0.025 | [4] -0.009 | pinometostat -0.004 | [6] 0.035 | [7] 0.005 | [8] -0.051 | [9] 0.1 | [10] 0.029 | Nexturastat A 0.008 | vemurafenib 0 | [11] 0.038 | [12] -0.016 | givinostat 0.032 | barasertib 0.039

ACLY (UniProt P53396)
inactive: IRAK-1-4 Inhibitor I 0.024 | ibrutinib 0.016 | [1] -0.017 | ralimetinib -0.025 | [2] -0.003 | [3] -0.01 | [4] -0.018 | pinometostat -0.024 | [5] -0.006 | [6] -0.028 | [7] -0.008 | [8] 0.013 | [9] 0.011 | [10] 0.016 | Nexturastat A -0.058 | vemurafenib 0.01 | [11] 0.01 | [12] 0.013 | givinostat -0.035 | barasertib 0.019

ACAP2 (UniProt Q15057)
inactive: IRAK-1-4 Inhibitor I -0.033 | ibrutinib -0.012 | [1] -0.038 | ralimetinib 0 | [2] -0.031 | [3] -0.065 | [4] 0.061 | pinometostat 0.029 | [6] 0.004 | [7] -0.046 | [8] 0 | [9] -0.038 | [10] 0.033 | Nexturastat A 0 | vemurafenib 0.046 | [11] 0.057 | [12] -0.04 | givinostat 0.028 | barasertib 0

AARSD1 isoform 3 (UniProt Q9BTE6)
active: givinostat -0.273
inactive: IRAK-1-4 Inhibitor I 0.002 | ibrutinib -0.074 | [1] 0.029 | ralimetinib -0.038 | [2] -0.017 | [3] -0.177 | [4] 0.069 | pinometostat -0.01 | [6] -0.126 | [7] 0.016 | [8] -0.04 | [9] -0.003 | [10] 0.034 | Nexturastat A -0.077 | vemurafenib 0.003 | [11] 0.122 | [12] 0.03 | barasertib 0.032

ABHD11 (UniProt Q8NFV4)
inactive: IRAK-1-4 Inhibitor I -0.031 | ibrutinib 0.031 | [1] -0.007 | ralimetinib -0.123 | [2] -0.006 | [3] -0.043 | [4] 0.068 | pinometostat -0.027 | [6] 0.026 | [8] -0.065 | [9] -0.004 | [10] 0.003 | Nexturastat A -0.028 | vemurafenib 0.139 | [11] -0.011 | [12] 0.023 | givinostat 0.02 | barasertib 0.057
